# Taken from: PubChem BioAssay AID1259425 (University of Nebraska Medical Center, 2018)
# Assay: 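Seek colon cancer weak points whose silencing resembles KSR1 loss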 (primary screen)
# Cells: HCT116 human colon cancer cells
# Knock-down reagent: siRNA pool against human genes, 50 nM siRNA
# Measurement: 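After 50 nM siRNA pool, branched-DNA assay measures six marker transcripts per well, minus blank, normalised to the geometric mean of two housekeeping transcripts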
# Direction: BNIP3L mRNA: higher = more BNIP3L transcript after knockdown
# The whole screen tested about 14,000 reagents; this is a part drawn at random. Not all columns of the deposit are shown. Not stated in the record: the time to read-out.
target,"BNIP3L mRNA, set 1"
TOMM40L,0.387
CFD,0.123
UBAC1,0.112
LAMC3,0.132
ECEL1,0.0419
MEGF8,0.103
HOMER3,0.117
SELENOW,0.346
MTHFD2,0.0795
COASY,0.339
PRSS3,0.111
CNN1,0.0662
CA3,0.0701
PRDX5,0.196
TUSC2,0.182
SCMH1,0.119
UBL3,0.0867
DCX,0.25
RFX5,0.115
PUS3,0.163
PLA2R1,0.121
FDPSP3,0.153
FBXO25,0.0688
DGCR6L,0.208
HBA1,0.163
SLC29A1,0.074
GRPEL1,0.131
MYEOV,0.175
ARL2,0.0936
NBN,0.0754
SPO11,0.0797
ZDHHC7,0.13
THUMPD3,0.146
LAGE3,0.0983

2 successive entries from above:
target,"BNIP3L mRNA, set 1"
HBA1,0.163
SLC29A1,0.074
